PubChem BioAssay AID1224830, NIAID, 2016
This is a random part of about 18,000 reagents tested. In the full data, about 2,900 (16%) are marked active. 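Calls are made per well; low scores hint the gene aids the LPS response, high scores that it dampens it.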 A number with no mark means an inactive call. Repeated entries: four replicate wells of each siRNA pool.

- Purpose: 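Regulators of TLR4 signalling towards TNF-alpha in macrophage-like cells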 (primary screen)
- System: human THP-1 monocytic leukaemia cells, TNF dual-luciferase reporter clone, PMA-differentiated to macrophage-like cells
- Knock-down reagent: siRNA pool against human genes, 50 nM
- Duration: LPS for 4 h, given about 3 days after siRNA transfection
- Treatment: bacterial LPS (TLR4 ligand), 10 ng/ml
- Measured: 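TNF firefly reporter luminescence divided by renilla, normalised to the plate median, then turned into a robust z-score for each replicate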
- Direction: TNF reporter robust z-score: higher = stronger TNF reporter response to LPS
- Rule for the call: 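Each well counts as active if its z-score is over 2.8 or under -1.5; controls are left without a call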

gene,PubChem SID,TNF reporter robust z-score
FBXL9P (GeneID 26231),SID315455724,-1.75 (active)
FBXL9P (GeneID 26231),SID315455724,0.2
FBXL9P (GeneID 26231),SID315455724,1.28
FBXL9P (GeneID 26231),SID315455724,0.61
RNF115 (GeneID 27246),SID315455993,0.78
RNF115 (GeneID 27246),SID315455993,-1.39
RNF115 (GeneID 27246),SID315455993,-0.11
RNF115 (GeneID 27246),SID315455993,0.01
CT45A2 (GeneID 728911),SID315465202,0.7
CT45A2 (GeneID 728911),SID315465202,0
CT45A2 (GeneID 728911),SID315465202,0.99
CT45A2 (GeneID 728911),SID315465202,3.05 (active)
KREMEN2 (GeneID 79412),SID315459279,-0.01
KREMEN2 (GeneID 79412),SID315459279,1.31
KREMEN2 (GeneID 79412),SID315459279,0.16
KREMEN2 (GeneID 79412),SID315459279,1.36
NRBF2 (GeneID 29982),SID315456261,-0.61
NRBF2 (GeneID 29982),SID315456261,0.79
NRBF2 (GeneID 29982),SID315456261,1.39
NRBF2 (GeneID 29982),SID315456261,-0.62

Laid out differently: 8 of the entries above
FBXL9P (GeneID 26231) [SID315455724]
- TNF reporter robust z-score: 1.28

FBXL9P (GeneID 26231) [SID315455724]
- TNF reporter robust z-score: 0.61

RNF115 (GeneID 27246) [SID315455993]
- TNF reporter robust z-score: 0.78

RNF115 (GeneID 27246) [SID315455993]
- TNF reporter robust z-score: -1.39

RNF115 (GeneID 27246) [SID315455993]
- TNF reporter robust z-score: -0.11

RNF115 (GeneID 27246) [SID315455993]
- TNF reporter robust z-score: 0.01

CT45A2 (GeneID 728911) [SID315465202]
- TNF reporter robust z-score: 0.7

CT45A2 (GeneID 728911) [SID315465202]
- TNF reporter robust z-score: 0

Next results follow.
gene,PubChem SID,TNF reporter robust z-score
ABCA6 (GeneID 23460),SID315455255,-0.56
ABCA6 (GeneID 23460),SID315455255,-0.61
ABCA6 (GeneID 23460),SID315455255,-0.57
ABCA6 (GeneID 23460),SID315455255,-0.1
OAS2 (GeneID 4939),SID315450337,1.68
OAS2 (GeneID 4939),SID315450337,2.69
OAS2 (GeneID 4939),SID315450337,5.38 (active)
OAS2 (GeneID 4939),SID315450337,0.39
TTC17 (GeneID 55761),SID315457835,-0.79
TTC17 (GeneID 55761),SID315457835,-1.45
TTC17 (GeneID 55761),SID315457835,-1.75 (active)
TTC17 (GeneID 55761),SID315457835,-0.91
PSAP (GeneID 5660),SID315450869,0.14
PSAP (GeneID 5660),SID315450869,-0.8
PSAP (GeneID 5660),SID315450869,-0.14
PSAP (GeneID 5660),SID315450869,-0.37
C9orf85 (GeneID 138241),SID315462040,-0.2
C9orf85 (GeneID 138241),SID315462040,0.09
C9orf85 (GeneID 138241),SID315462040,-0.74
C9orf85 (GeneID 138241),SID315462040,0.23
FCGR1A (GeneID 2209),SID315448650,2.71
FCGR1A (GeneID 2209),SID315448650,1.11
FCGR1A (GeneID 2209),SID315448650,-0.25
FCGR1A (GeneID 2209),SID315448650,2.49
PID1 (GeneID 55022),SID315457351,-0.14
PID1 (GeneID 55022),SID315457351,0.75
PID1 (GeneID 55022),SID315457351,0.5
